Test results published in publication PMC8136785, “Short DNA/RNA heteroduplex oligonucleotide interacting proteins are key regulators of target gene silencing”.

Sequences of proteins named here, by UniProt entry; tags and fusion partners are left off. Residues count along the entry.
UniProt P39749, whole entry: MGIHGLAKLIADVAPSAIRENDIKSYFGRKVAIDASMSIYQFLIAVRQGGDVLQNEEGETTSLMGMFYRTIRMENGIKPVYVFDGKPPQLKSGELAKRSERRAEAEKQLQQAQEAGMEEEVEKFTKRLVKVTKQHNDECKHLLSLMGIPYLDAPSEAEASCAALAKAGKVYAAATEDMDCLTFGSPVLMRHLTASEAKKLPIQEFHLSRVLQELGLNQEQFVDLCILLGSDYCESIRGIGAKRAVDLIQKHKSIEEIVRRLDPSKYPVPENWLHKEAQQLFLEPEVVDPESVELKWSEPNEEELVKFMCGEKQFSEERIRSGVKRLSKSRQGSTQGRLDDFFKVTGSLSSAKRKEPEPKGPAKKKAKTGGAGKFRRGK
UniProt P28352, whole entry: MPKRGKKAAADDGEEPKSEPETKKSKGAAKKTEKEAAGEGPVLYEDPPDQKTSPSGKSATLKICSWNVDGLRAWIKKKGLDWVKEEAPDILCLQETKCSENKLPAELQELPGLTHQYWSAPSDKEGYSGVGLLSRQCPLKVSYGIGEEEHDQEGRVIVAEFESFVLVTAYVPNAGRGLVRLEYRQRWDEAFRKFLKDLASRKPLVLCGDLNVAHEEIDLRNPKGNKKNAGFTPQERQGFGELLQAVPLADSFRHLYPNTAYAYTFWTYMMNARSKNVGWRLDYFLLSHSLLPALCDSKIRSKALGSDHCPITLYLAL
UniProt P28352, 2-317: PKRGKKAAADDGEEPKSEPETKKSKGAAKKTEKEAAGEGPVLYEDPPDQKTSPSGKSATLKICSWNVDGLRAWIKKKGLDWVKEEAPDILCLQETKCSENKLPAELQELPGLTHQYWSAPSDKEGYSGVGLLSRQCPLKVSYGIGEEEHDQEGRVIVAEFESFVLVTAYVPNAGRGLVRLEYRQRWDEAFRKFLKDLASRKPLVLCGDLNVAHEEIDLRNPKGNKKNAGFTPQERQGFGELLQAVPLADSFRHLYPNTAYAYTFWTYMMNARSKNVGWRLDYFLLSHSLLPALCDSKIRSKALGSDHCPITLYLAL

Tests used:
[1] = target: FEN1 (UniProt P39749); assay: EMSA; conditions: EMSA: 1 uM nucleic acid, 20 min 37 C, N buffer (100 mM NaCl, 20 mM Tris-acetate pH 8.0, 0.1 mM EDTA, 0.01% Triton X) or M buffer, recombinant protein, protein details: GST cleaved with PreScission, DNA:RNA hybrid
[2] = target: APEX1 (UniProt P28352); assay: EMSA; conditions: EMSA: 1 uM nucleic acid, 20 min 37 C, N buffer (100 mM NaCl, 20 mM Tris-acetate pH 8.0, 0.1 mM EDTA, 0.01% Triton X) or M buffer, recombinant protein, protein details: His (pET28a), DNA:RNA hybrid
[3] = target: T1, ANXA5 (annexin A5) (UniProt P48036); assay: EMSA; conditions: EMSA: 1 uM nucleic acid, 20 min 37 C, N buffer (100 mM NaCl, 20 mM Tris-acetate pH 8.0, 0.1 mM EDTA, 0.01% Triton X) or M buffer, recombinant protein, protein details: His (pET28a), DNA:RNA hybrid
T1 sequence (looked up, limits assumed): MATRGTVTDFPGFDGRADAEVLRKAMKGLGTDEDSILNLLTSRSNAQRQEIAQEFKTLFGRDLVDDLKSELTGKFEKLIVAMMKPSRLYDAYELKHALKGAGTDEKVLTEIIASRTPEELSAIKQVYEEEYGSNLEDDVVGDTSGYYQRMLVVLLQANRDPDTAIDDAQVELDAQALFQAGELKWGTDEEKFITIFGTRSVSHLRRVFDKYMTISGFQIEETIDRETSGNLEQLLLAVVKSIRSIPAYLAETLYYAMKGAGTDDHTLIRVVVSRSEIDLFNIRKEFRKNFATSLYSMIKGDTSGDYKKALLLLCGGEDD

[4] = target: T2, CA8 (carbonic anhydrase 8) (UniProt P28651); assay: EMSA; conditions: EMSA: 1 uM nucleic acid, 20 min 37 C, N buffer (100 mM NaCl, 20 mM Tris-acetate pH 8.0, 0.1 mM EDTA, 0.01% Triton X) or M buffer, recombinant protein, protein details: His (pET28a), DNA:RNA hybrid
T2 sequence: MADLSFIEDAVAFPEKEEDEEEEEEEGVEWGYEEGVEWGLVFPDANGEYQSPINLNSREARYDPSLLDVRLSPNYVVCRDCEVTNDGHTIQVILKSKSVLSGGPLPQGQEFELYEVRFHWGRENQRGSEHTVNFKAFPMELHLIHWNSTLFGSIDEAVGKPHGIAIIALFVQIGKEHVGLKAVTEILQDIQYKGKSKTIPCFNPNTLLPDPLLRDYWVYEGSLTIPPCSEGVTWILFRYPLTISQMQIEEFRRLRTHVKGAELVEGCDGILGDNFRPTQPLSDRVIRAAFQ

[5] = target: FEN1 in cell lysate (UniProt P39749); assay: pull-down; conditions: stronger than ANXA5 and CA8, as N1, protein in an extract, label: 5' biotin-TEG on ASO, DNA:RNA hybrid
[6] = target: APEX1 in cell lysate (UniProt P28352); assay: pull-down; conditions: stronger than ANXA5 and CA8, as N1, protein in an extract, label: 5' biotin-TEG on ASO, DNA:RNA hybrid
[7] = target: T3, CA8 in cell lysate (UniProt P28651); assay: pull-down
T3 sequence (looked up, limits assumed): T2 sequence

[8] = target: T4, ANXA5 in cell lysate (UniProt P48036); assay: pull-down
T4 sequence (looked up, limits assumed): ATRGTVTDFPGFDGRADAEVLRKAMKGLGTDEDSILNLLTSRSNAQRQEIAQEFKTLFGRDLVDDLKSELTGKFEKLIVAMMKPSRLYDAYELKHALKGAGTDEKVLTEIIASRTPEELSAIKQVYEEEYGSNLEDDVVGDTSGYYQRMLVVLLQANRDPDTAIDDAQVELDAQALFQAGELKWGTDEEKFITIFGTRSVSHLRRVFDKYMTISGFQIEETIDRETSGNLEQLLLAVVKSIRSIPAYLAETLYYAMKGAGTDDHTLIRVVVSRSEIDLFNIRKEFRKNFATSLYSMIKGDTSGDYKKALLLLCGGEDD

[9] = N buffer (100 mM NaCl, no Mg2+), ASO full PS, LNA 3+3 gapmer, '5'(L) read as LNA 5-methyl-C, cRNA PS-PO mixed, 2'-OMe 3+3, 5' tocopherol
[10] = vs PS-ASO, full PO LNA gapmer ASO, full PO 2'-OMe 3+3 cRNA, 5' tocopherol
[11] = vs PS-ASO, full PO LNA gapmer ASO, full PS 2'-OMe 3+3 cRNA, 5' tocopherol
[12] = vs PS-ASO, as N1 with full PO LNA gapmer ASO
[13] = weak affinity, as N1, protein in an extract, label: 5' biotin-TEG on ASO, DNA:RNA hybrid
[14] = no Toc, as N7 without tocopherol

CTAGTTCACTGAATGC / GCAUUCAGUGAACUAG [Toc-Malat1 HDO (16-mer)]
binding result ([1]; M buffer (8 mM MgCl2), ASO full PS, LNA 3+3 gapmer, '5'(L) read as LNA 5-methyl-C, cRNA PS-PO mixed, 2'-OMe 3+3, 5' tocopherol): binds
binding result [1, 9]: binds
binding result ([2]; M buffer (8 mM MgCl2), slightly weaker than N buffer, larger smeared complex, ASO full PS, LNA 3+3 gapmer, '5'(L) read as LNA 5-methyl-C, cRNA PS-PO mixed, 2'-OMe 3+3, 5' tocopherol): binds
binding result [2, 9]: binds

CTAGTTCACTGAATGC / GCAUUCAGUGAACUAG [Toc-Malat1 HDO, PO-ASO / PO cRNA]
binding result [3, 10]: binds more weakly
binding result [4, 10]: binds more weakly

CTAGTTCACTGAATGC / GCAUUCAGUGAACUAG [Toc-Malat1 HDO, PO-ASO / PS cRNA]
binding result [3, 11]: binds more weakly
binding result [4, 11]: binds more weakly

CTAGTTCACTGAATGC / GCAUUCAGUGAACUAG [Toc-Malat1 HDO, PO-ASO / PS-PO cRNA]
binding result [3, 12]: binds more weakly
binding result [4, 12]: binds more weakly

CTAGTTCACTGAATGC / GCAUUCAGUGAACUAG [Toc-Malat1 HDO, PS-ASO / full PO cRNA]
binding result ([3]; as N1 with full PO cRNA): binds
binding result ([1]; as N1 with full PO cRNA): binds
binding result ([4]; as N1 with full PO cRNA): binds

CTAGTTCACTGAATGC / GCAUUCAGUGAACUAG [Toc-Malat1 HDO, PS-ASO / full PS cRNA]
binding result ([3]; as N1 with full PS cRNA): binds
binding result ([1]; as N1 with full PS cRNA): binds
binding result ([2]; as N1 with full PS cRNA): binds
binding result ([4]; as N1 with full PS cRNA): binds

CTAGTTCACTGAATGC / GCAUUCAGUGAACUAG [Toc-biotin-HDO (Malat1)]
binding result [5]: binds
binding result [6]: binds
binding result [7, 13]: binds more weakly
binding result [8, 13]: binds more weakly

CTAGTTCACTGAATGC [biotin-ASO (Malat1)]
binding result ([7]; similar to the weak Toc-HDO binding, full PS, LNA 3+3 gapmer, '5'(L) read as LNA 5-methyl-C, protein in an extract, label: 5' biotin-TEG, synthetic backbone): binds more weakly
binding result ([8]; barely bound, full PS, LNA 3+3 gapmer, '5'(L) read as LNA 5-methyl-C, protein in an extract, label: 5' biotin-TEG, synthetic backbone): binds more weakly

GCATTGGTATTCA / UGAAUACCAAUGC [ApoB HDO (13-mer, no Toc)]
binding result [1, 14]: binds more weakly
binding result [2, 14]: binds more weakly
binding result [4, 14]: binds more weakly

The exact form of at least one protein or probe is not confirmed. For some assays here: Weaker means in comparison with the reference protein, sequence or condition of that experiment. For some assays here: At least one verdict was read from the data and is not stated in words by the source. For some assays here: Tags and fusion partners may be left off the protein sequences shown. For some assays here: At least one result comes from cells or an extract, where the contact may be indirect.
